Assay results: PMC6461687
For at least one entry, the source does not settle the construct or the ends of the probe.

System: cardiac troponin T (cTnT)
Assay: electrical aptasensor (rGO relative resistance change)
Details: response from 1 pg/mL to 10 ng/mL, 5'-amine, coupled to rGO via PBSE, 1x PBS pH 7.4 or 10-fold diluted human serum in 1x PBS, aptamer immobilized on rGO, ethanolamine blocked, binding temperature not stated, commercial protein, single-stranded DNA

## ATACGGGAGCCAACACCAGGACTAACATTATAAGAATTGCGAATAATCATTGGAGAGCAGGTGTGACGGAT [cTnT aptamer (OTC Biotech 091)]
1x PBS, LOD 1.2 pg/mL (not a Kd)
  binding result: binds
10-fold diluted human serum in 1x PBS, LOD 1.7 pg/mL (not a Kd)
  binding result: binds
